{"sequences": {"note": "Protein sequences, listed by entry. Tags and fused reporters are not part of them. Lines headed by an entry give the natural chain unless they say otherwise; changes in a name come on top. Chains listed by the source or under a name are the forms on record and can include a tag or linker.", "UniProt P17839": "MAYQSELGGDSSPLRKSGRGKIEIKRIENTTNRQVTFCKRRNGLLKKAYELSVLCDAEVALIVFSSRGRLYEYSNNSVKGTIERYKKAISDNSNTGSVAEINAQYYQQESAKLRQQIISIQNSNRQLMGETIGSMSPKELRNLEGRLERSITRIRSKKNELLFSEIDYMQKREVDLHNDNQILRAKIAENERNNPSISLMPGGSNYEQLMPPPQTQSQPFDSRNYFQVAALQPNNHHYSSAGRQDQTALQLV", "UniProt O22456": "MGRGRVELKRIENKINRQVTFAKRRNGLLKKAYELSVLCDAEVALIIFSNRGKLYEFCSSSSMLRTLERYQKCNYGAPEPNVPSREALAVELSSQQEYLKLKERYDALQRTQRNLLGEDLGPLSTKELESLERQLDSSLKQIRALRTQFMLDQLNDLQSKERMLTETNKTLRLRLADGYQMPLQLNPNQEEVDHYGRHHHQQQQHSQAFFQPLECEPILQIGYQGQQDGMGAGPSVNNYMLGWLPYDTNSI", "SEP3 AAAAGPL mutant, in vitro translated (O22456, form named)": "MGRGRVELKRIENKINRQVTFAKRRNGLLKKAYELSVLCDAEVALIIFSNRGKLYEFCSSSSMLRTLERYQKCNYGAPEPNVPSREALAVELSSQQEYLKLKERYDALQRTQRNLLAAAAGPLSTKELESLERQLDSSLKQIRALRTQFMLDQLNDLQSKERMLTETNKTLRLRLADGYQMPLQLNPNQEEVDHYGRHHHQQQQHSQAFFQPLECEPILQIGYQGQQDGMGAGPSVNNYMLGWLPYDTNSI"}, "source": "paper PMC5364480", "note": "These are yes or no findings as the source states them, for the method shown. Some entries that bind do so weakly or less than the wild type."}
{"molecular_target": "AGAMOUS, in vitro translated (A.thaliana) (UniProt P17839)", "test": "native gel or EMSA; in vitro translated proteins on a biotin-labelled SEP3 promoter probe with two CArG boxes; SEP3 or mutant titrated against constant AG (1:1, 1:0.75, 1:0.50, 1:0.25); on ice 30 min; native 5% polyacrylamide gel"}
{"substance": "native SEP3, in vitro translated (from UniProt O22456 1-251)", "binding": "binds"}
{"substance": "SEP3 AAAAGPL mutant, in vitro translated (from UniProt O22456 1-251)", "binding": "binds weakly"}
{"substance": "SEP3(P122A), in vitro translated (from UniProt O22456 1-251)", "binding": "binds"}
{"substance": "SEP3(G121A/P122A/L123A), in vitro translated (from UniProt O22456 1-251)", "binding": "binds"}
